Test results as given in US6677326B2 (Arakis, Ltd., priority 1999, dated 2004).
At least one compound was matched to its structure with a doubt left.

Columns and labels:
[1] = BNF 37 March 1999; non-chronotherapeutic; cited from earlier work
[2] = Proposed equivalent dose in chronotherapeutic administration; settings: proposed clinical dose
[3] = BNF 37 March 1999; cited from earlier work

Row | Compound | Dose equal to 5 mg prednisolone (Normal dosing) [1] [µg] | Equivalent dose in chronotherapeutic administration, equal to 1 mg prednisolone [2] [µg] | Broadly similar dose in nasal administration [3] [µg]
1 | C[C@H]1C[C@H]2[C@@H]3CCC4=CC(=O)C=C[C@]4(C)[C@@]3(F)[C@@H](O)C[C@]2(C)[C@@]1(O)C(=O)CO [betamethasone] | 750 | 150 | 
2 | CCCC1O[C@@H]2C[C@H]3[C@@H]4CCC5=CC(=O)C=C[C@]5(C)[C@H]4[C@@H](O)C[C@]3(C)[C@]2(C(=O)CO)O1 (stereo partly drawn) [budesonide] |  |  | 200
3 | C[C@@H]1C[C@H]2[C@@H]3CCC4=CC(=O)C=C[C@]4(C)[C@@]3(F)[C@@H](O)C[C@]2(C)[C@@]1(O)C(=O)CO [dexamethasone] | 750 | 150 | 
4 | C[C@@H]1C[C@H]2[C@@H]3C[C@H](F)C4=CC(=O)C=C[C@]4(C)[C@@]3(F)[C@@H](O)C[C@]2(C)[C@@]1(O)C(=O)SCF [fluticasone] |  |  | 100
